# Results reported in patent US20240225971A1 (Genomatica, Inc., priority 2021, published 2024).
# Columns and labels:
# [1] = Clarity of fragrance ingredient in bioderived 1,3-BG by visual observation
# [2] = Flash point of fragrance ingredients; format: physicochemical
# Description: Also included is the molecular weight of each of the fragrance ingredients. Not determinable (ND).
structure (smiles),measurement,setting,value
"CCCCCCCC1CCC(=O)O1 (stereo not drawn) [Aldehyde C14 (Undecalactone γ), Undecalactone γ]",Clarity 1%,[1],Clear
same,Clarity 10%,[1],Clear
same,Flash Point,[2],160 °C
